Some peptides are written in HELM: one residue between dots, names in brackets for other building blocks, links after the first $. Some results are limits rather than exact numbers.

We go through one substance from patent US20250000942A1 (Prince Biotech, LLC, priority 2017, published 2025).

The series is described as follows: peptide made by a vendor. Conditions: whole synthesis, HPLC and mass spectrometry.

“PEPTIDE1{M.V.R.I.K.P.G.S.A.N.K.P.S.D.D}$$$$V2.0”: the “final HPLC purity” value is given as above 95% and the final ms purity was above 95%.
